Results reported in article doi:10.1101/2021.04.01.438077.
Residue numbers refer to the chain shown, from its start. No constants are given. Whether binding was seen depends on the method and setting. Binding seen in cells or lysates may run through a third protein. Some binding calls cover weakened binding; strength is not graded here. Where a sequence is shown, tags or fusion partners need not be part of it.

Chains of the proteins cited; added tags and fusions are not shown.
UniProt Q9UHB6: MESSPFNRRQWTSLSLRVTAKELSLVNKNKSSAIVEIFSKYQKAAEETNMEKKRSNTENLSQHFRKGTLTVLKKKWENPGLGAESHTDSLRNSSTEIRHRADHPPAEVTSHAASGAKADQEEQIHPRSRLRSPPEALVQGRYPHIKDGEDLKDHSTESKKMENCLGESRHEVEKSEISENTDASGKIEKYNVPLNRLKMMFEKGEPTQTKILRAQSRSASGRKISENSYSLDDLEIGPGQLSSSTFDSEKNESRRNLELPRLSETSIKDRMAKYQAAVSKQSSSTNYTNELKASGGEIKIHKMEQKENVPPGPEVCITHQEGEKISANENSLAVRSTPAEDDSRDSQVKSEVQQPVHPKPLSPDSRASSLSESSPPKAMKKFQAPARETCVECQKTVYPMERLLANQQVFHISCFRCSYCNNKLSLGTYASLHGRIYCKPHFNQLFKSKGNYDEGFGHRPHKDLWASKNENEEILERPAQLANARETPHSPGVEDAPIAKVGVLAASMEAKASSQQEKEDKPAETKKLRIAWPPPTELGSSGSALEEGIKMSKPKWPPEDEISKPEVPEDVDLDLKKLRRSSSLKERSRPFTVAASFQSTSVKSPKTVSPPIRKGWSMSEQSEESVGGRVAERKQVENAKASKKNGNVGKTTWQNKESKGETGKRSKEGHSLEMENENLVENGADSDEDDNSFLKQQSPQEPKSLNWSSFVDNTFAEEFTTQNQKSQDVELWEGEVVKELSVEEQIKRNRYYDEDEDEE

How the values were obtained:
GST-Rab40b = target: T1, GST-Rab40b (UniProt Q12829); experiment: pull-down
T1 sequence: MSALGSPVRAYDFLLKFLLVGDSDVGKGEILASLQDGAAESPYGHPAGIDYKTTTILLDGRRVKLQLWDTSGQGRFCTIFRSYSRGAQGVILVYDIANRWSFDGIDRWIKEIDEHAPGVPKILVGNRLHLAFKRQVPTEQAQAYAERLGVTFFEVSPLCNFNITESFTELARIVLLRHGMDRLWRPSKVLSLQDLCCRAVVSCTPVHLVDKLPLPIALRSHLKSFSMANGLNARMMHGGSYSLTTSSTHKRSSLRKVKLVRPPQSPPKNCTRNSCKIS

Flag-Rab40b-4A = target: T2, Flag-Rab40b-4A (UniProt Q12829); experiment: co-IP
T2 sequence: T1 sequence with L212A, P213A, L214A, P215A

Flag-Rab40b (wild type) = target: T3, Flag-Rab40b (wild type) (UniProt Q12829); experiment: co-IP
T3 sequence: T1 sequence

binding (GST-Rab40b): binds | binding (Flag-Rab40b-4A): binds | binding (Flag-Rab40b (wild type)): binds weakly
Substance: EPLIN (Epithelial Protein Lost In Neoplasia), endogenous (from UniProt Q9UHB6 1-759)
